Experimental data reported in the supplement of paper PMC10849652.
The other results are listed elsewhere or left out.

Protein sequences, listed by entry. Tags and fused reporters are not part of them. Lines headed by an entry give the natural chain unless they say otherwise; changes in a name come on top.
UniProt P56385: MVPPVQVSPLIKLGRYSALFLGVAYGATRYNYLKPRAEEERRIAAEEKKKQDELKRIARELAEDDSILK
UniProt O94817, whole entry, looked up: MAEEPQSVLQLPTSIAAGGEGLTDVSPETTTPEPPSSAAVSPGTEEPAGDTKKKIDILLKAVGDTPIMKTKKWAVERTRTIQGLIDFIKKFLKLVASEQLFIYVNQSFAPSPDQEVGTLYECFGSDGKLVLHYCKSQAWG
UniProt P54709, whole entry, looked up: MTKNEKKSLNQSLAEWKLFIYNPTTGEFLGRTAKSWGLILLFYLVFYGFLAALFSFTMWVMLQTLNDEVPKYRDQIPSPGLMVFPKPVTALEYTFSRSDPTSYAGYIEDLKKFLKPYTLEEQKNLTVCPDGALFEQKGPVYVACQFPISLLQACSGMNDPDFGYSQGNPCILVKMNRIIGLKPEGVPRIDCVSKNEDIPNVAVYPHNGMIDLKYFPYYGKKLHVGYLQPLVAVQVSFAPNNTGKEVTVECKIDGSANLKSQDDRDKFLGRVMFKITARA
UniProt Q9H7T9: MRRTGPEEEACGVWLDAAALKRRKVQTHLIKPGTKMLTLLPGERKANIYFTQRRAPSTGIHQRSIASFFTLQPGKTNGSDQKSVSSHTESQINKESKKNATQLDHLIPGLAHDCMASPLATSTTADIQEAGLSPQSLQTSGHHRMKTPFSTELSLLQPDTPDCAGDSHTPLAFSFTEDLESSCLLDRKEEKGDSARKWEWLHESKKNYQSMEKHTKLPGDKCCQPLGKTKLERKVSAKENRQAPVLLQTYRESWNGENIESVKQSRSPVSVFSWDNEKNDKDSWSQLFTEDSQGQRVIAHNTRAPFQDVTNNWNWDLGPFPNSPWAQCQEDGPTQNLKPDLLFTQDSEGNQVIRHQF
UniProt Q9BYG0: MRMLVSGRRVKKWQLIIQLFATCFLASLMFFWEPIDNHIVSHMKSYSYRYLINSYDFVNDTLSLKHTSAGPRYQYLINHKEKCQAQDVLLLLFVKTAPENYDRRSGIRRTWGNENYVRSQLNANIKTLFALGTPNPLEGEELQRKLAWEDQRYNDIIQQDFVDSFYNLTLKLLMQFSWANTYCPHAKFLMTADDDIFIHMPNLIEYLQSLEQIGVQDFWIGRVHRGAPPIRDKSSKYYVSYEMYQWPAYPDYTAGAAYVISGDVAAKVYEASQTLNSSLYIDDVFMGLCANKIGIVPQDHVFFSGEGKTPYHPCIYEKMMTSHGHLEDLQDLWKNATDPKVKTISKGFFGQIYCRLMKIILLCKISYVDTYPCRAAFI
UniProt P15313, whole entry, looked up: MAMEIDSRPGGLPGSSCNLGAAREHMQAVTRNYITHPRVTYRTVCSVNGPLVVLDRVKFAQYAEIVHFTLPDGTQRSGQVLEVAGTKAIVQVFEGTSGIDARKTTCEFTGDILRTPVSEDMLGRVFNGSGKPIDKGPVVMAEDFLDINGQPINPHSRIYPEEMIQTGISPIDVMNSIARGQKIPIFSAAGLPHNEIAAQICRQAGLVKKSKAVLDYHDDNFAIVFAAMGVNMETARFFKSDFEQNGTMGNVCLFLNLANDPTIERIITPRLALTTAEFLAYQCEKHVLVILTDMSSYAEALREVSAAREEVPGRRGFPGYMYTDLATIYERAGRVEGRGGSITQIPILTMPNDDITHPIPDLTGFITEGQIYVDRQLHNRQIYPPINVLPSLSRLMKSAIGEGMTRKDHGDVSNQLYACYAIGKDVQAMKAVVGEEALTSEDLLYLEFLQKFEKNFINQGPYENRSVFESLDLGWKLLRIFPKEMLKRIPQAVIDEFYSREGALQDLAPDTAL
UniProt Q16864, whole entry, looked up: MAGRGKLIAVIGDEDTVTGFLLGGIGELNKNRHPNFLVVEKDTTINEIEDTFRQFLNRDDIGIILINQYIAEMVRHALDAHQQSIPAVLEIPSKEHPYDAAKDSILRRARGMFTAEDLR
UniProt O75348, whole entry, looked up: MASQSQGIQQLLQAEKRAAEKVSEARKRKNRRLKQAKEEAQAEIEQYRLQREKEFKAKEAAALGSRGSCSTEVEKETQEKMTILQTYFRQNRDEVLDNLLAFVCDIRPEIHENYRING
UniProt Q8NHH9: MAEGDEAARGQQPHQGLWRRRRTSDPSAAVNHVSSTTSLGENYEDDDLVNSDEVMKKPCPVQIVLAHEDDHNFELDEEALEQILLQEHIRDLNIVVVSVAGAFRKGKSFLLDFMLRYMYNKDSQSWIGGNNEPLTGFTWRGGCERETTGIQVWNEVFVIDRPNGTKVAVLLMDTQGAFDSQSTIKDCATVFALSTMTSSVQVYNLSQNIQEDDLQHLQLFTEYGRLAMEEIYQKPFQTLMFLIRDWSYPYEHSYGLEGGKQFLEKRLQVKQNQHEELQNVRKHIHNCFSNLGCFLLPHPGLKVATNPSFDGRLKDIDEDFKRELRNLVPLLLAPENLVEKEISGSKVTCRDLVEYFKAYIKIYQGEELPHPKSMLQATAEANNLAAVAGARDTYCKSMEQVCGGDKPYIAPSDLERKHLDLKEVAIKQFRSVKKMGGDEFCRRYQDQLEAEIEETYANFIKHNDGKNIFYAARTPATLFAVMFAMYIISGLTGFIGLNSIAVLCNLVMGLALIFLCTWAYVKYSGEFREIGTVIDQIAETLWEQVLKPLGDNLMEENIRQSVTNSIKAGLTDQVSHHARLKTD
UniProt Q9NWX5: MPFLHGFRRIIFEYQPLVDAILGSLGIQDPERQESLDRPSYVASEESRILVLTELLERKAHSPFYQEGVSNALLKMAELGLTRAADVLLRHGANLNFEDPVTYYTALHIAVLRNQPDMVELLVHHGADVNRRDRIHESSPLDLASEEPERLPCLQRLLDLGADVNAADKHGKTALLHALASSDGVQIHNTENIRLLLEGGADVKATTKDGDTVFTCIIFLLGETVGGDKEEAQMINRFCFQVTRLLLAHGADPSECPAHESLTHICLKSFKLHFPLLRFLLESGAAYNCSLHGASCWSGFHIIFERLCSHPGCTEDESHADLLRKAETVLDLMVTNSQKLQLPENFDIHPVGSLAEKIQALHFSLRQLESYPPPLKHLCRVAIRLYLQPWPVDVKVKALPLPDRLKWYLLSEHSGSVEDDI
UniProt O75947: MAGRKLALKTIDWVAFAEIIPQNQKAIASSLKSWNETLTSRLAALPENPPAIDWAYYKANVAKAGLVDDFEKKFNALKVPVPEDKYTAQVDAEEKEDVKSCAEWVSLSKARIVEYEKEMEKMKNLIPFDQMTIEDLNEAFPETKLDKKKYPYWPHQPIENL
UniProt Q04656: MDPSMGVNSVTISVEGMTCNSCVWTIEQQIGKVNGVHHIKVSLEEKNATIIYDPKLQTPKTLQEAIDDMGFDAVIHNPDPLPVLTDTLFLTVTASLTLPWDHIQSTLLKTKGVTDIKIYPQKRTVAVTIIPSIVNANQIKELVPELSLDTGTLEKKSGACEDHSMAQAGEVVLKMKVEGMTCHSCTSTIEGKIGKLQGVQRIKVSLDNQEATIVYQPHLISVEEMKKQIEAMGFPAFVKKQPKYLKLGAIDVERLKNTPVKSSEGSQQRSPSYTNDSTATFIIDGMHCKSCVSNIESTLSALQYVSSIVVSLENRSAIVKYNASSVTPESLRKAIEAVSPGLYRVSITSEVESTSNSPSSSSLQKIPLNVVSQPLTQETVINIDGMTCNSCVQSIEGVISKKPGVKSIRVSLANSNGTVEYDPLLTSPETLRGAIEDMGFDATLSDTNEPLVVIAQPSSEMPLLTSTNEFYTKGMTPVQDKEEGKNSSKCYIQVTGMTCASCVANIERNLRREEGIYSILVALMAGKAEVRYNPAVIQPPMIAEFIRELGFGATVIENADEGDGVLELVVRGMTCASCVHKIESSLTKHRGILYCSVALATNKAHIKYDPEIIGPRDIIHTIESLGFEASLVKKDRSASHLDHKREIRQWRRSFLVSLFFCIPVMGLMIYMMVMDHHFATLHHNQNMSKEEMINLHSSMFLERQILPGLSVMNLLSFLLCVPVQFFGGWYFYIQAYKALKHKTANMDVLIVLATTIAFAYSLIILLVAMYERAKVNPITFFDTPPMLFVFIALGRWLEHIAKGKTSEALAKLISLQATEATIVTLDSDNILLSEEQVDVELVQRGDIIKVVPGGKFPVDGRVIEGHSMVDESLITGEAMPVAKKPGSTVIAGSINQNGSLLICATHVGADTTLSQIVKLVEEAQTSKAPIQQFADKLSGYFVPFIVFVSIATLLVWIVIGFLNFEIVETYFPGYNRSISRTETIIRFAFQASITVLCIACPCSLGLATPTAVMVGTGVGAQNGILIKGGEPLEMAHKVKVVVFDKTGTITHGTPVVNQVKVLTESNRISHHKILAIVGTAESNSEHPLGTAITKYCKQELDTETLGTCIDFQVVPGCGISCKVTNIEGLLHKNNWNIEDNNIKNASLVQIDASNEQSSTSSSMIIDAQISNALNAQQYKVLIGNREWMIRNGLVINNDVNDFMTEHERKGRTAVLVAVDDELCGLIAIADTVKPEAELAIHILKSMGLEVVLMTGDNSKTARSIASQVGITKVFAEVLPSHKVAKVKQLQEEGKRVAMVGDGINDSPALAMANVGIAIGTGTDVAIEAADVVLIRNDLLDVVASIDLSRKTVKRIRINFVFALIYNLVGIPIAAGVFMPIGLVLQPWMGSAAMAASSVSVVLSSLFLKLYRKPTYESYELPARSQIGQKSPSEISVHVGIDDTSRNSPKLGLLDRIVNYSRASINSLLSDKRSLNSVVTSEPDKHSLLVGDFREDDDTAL
UniProt Q9UII2: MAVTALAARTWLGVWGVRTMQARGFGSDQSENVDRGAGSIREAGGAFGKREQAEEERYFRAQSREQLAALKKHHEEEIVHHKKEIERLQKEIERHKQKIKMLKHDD
UniProt Q5T9A4: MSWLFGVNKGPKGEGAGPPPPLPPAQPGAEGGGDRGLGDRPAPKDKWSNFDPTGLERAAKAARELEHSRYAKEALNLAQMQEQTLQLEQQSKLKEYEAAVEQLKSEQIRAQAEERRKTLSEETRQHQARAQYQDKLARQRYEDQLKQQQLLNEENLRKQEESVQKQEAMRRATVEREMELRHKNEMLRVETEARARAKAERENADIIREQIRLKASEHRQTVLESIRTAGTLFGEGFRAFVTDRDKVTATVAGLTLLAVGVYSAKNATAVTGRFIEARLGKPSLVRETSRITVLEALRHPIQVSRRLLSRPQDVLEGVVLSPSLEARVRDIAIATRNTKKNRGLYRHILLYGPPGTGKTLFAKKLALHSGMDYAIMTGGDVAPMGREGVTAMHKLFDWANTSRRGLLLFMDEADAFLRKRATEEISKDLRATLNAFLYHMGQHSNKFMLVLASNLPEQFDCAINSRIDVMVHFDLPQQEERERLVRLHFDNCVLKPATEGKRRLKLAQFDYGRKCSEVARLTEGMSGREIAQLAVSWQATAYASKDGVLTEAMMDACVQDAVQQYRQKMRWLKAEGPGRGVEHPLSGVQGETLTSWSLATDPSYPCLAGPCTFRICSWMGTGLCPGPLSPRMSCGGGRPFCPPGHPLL
UniProt P36543, whole entry, looked up: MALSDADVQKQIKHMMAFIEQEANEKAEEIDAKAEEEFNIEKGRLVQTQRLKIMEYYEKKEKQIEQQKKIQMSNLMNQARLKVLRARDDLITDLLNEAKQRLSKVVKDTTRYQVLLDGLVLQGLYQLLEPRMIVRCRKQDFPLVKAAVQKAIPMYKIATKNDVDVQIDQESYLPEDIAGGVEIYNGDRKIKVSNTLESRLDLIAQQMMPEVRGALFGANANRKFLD
UniProt P06576, whole entry, looked up: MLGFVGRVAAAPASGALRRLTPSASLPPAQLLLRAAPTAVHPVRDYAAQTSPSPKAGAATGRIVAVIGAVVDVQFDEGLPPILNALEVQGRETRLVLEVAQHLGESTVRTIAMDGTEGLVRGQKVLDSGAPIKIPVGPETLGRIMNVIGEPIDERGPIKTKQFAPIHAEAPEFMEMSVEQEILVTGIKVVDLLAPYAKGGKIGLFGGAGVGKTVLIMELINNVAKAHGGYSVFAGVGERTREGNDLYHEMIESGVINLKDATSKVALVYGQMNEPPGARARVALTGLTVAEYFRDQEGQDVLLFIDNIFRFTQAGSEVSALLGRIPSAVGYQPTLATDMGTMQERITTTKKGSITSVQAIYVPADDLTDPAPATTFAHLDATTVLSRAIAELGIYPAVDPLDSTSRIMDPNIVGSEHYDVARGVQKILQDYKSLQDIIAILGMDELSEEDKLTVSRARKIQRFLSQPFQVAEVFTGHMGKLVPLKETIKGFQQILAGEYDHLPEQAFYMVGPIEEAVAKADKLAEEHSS
UniProt Q06055: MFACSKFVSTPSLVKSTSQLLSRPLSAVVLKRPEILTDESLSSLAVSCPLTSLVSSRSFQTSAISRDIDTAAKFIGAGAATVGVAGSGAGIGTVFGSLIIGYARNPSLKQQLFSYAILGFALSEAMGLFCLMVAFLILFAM
UniProt P24539: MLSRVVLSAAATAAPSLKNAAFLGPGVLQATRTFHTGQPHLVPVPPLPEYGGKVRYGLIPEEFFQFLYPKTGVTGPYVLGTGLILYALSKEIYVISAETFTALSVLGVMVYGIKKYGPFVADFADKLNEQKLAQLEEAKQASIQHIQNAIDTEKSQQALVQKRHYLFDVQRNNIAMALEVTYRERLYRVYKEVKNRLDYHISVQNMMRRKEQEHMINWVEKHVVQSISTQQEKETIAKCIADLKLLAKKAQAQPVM

Columns and labels:
Assay in all cases: log2 fold change, soluble protein after heating vs DMSO (PISA); higher = thermal stabilisation; K562 lysate, 10 uM; active = over 0.2 and 3.5 SD of the protein, either way, in both replicates (recomputed)
[1] = compound: C1=CC=C(C=C1)[C@H](COC2=CC3=C(C=C2)NC(=O)N3)NC(=O)C4=CC=CN(C4=O)CC5=CC(=C(C=C5)F)F
In short: (§1)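 K562 pellets were dounce-homogenised in PBS pH 7.4 with 1 mM MgCl2, and the crude extract at 1 mg/mL protein was treated with 10 μM compound for 30 min. Aliquots were heated for 3 min across 48°C-58°C, pooled, and brought to 0.5% NP-40 at 4°C; soluble protein was the supernatant after 21,000xg for 90 min. Soluble protein was quantified by TMTpro 16plex LC-MS/MS with channel sums equalised, and reported as log2 fold change in thermal stability against DMSO controls, with values from duplicates.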

[2] = compound: CC1=C(SC2=C1C(=N[C@H](C3=NN=C(N32)C)CC(=O)N)C4=CC=C(C=C4)Cl)C
In short: as §1

[3] = compound: CC1=C2C(=CC=C1)N=C(N(C2=O)C3=CC=CC=C3C)CN4C=NC5=C(N=CN=C54)N
In short: as §1

[4] = compound: Cc1sc2c(c1C)C(c1ccc(Cl)cc1)=N[C@@H](CC(=O)OC(C)(C)C)c1nnc(C)n1-2
In short: as §1

[5] = compound: c1ccc([C@@H]2C[C@H]2NC2CCNCC2)cc1
In short: as §1

Measured: log2 fold change

ATR (UniProt Q13535)
inactive: [1] -0.061 | [2] -0.036 | [3] -0.04 | [4] 0.003 | [5] -0.095

ATP5ME (UniProt P56385)
inactive: [1] 0.028 | [2] -0.012 | [3] 0.004 | [4] -0.019 | [5] -0.054

ATG12 (UniProt O94817)
inactive: [1] -0.098 | [2] -0.006 | [3] 0.015 | [4] 0.052 | [5] -0.07

ATP5MPL (UniProt P56378)
inactive: [1] -0.013 | [2] -0.071 | [3] 0.007 | [4] -0.004 | [5] 0.014

ATP1B3 (UniProt P54709)
inactive: [1] 0.038 | [2] -0.014 | [3] -0.025 | [4] -0.027 | [5] -0.028

ATP11A (UniProt P98196)
inactive: [1] 0.04 | [2] -0.014 | [3] -0.004 | [4] 0.005 | [5] -0.026

Reprinted at random: 2 records from the list
ATP1B3 (UniProt P54709)
inactive: [1] 0.038 | [2] -0.014 | [3] -0.025 | [4] -0.027 | [5] -0.028

ATP5MPL (UniProt P56378)
inactive: [1] -0.013 | [2] -0.071 | [3] 0.007 | [4] -0.004 | [5] 0.014

(listing goes on)

AUNIP isoform 2 (UniProt Q9H7T9)
inactive: [1] -0.032 | [2] 0.114 | [3] -0.024 | [4] -0.01 | [5] -0.159

B3GNT5 (UniProt Q9BYG0)
inactive: [1] 0.066 | [2] 0.174 | [3] -0.037 | [4] -0.11 | [5] -0.088

ATG16L1 (UniProt Q676U5)
inactive: [1] 0.007 | [2] -0.006 | [3] -0.027 | [4] -0.008 | [5] 0.025

ATP6V1B1 (UniProt P15313)
inactive: [1] 0.023 | [2] 0.004 | [3] 0.004 | [4] -0.023 | [5] -0.157

ATP6V1F isoform 2 (UniProt Q16864)
inactive: [1] -0.026 | [2] 0.039 | [3] 0.018 | [4] -0.013 | [5] 0.22

ATP6V1G1 (UniProt O75348)
inactive: [1] 0.009 | [2] 0.013 | [3] 0.003 | [4] -0.029 | [5] -0.009

ATL2 (UniProt Q8NHH9)
inactive: [1] -0.003 | [2] 0.023 | [3] 0.018 | [4] -0.064 | [5] -0.03

ATP1A4 (UniProt Q13733)
inactive: [1] 0.035 | [2] 0.009 | [3] 0.017 | [4] -0.023 | [5] -0.03

ASB6 (UniProt Q9NWX5)
inactive: [1] 0.012 | [2] 0.125 | [3] 0.005 | [4] 0.016 | [5] 0.028

ATP1A3 isoform 3 (UniProt P13637)
inactive: [1] 0.015 | [2] 0.015 | [3] 0.032 | [4] -0.034 | [5] -0.086

ATP5PD (UniProt O75947)
inactive: [1] -0.011 | [2] -0.056 | [3] -0.007 | [4] 0.013 | [5] 0.023

ATP7A isoform 3 (UniProt Q04656)
inactive: [1] 0 | [2] 0.006 | [3] 0.019 | [4] 0.01 | [5] 0.034

ATP5IF1 (UniProt Q9UII2)
inactive: [1] 0.021 | [2] 0.027 | [3] -0.019 | [4] -0.02 | [5] -0.072

ATAD3B (UniProt Q5T9A4)
inactive: [1] 0.082 | [2] -0.033 | [3] -0.021 | [4] 0.047 | [5] 0.172

ATP6V1E1 (UniProt P36543)
inactive: [1] 0.015 | [2] -0.007 | [3] -0.012 | [4] -0.048 | [5] -0.081

ATP5F1B (UniProt P06576)
inactive: [1] 0.018 | [2] 0.016 | [3] -0.005 | [4] -0.015 | [5] 0.003

ATP5MC2 isoform 2 (UniProt Q06055)
inactive: [1] -0.009 | [2] 0.02 | [3] 0.096 | [4] -0.036 | [5] -0.118

ATP5PB (UniProt P24539)
inactive: [1] -0.055 | [2] -0.006 | [3] -0.014 | [4] 0.032 | [5] 0.015
